The subject of one data set is PhrR (Halomonas). Kind of data set: fluorescence polarization. Particulars: negative control; FP: Tris pH 7.5, 0.1 M NaCl, 10 mM MgSO4, 5 mg/ml sperm DNA, 10 mM urea, labeled DNA (10 nM and 1 uM both stated), 0-1.5 uM PtrR, 0-0.6 mM GABA, 1 h at 30 C; recombinant protein. For orientation: In fluorescence polarisation assays a small probe gives low polarisation when free and higher when bound to something large.

Data set [1] deals with T1, PtrR (YneJ) (Escherichia coli K-12 (ASKA collection)) (UniProt P77309).
T1 sequence (looked up, limits assumed): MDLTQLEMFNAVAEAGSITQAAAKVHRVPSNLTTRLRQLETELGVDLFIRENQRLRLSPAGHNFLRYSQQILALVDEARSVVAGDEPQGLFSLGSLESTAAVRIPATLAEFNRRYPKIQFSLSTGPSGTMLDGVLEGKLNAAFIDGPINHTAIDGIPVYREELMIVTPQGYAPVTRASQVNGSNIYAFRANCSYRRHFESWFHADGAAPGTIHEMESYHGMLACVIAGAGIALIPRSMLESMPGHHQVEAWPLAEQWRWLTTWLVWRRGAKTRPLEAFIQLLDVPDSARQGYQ
The experiment in a line: fluorescence polarization. Particulars: FP: Tris pH 7.5, 0.1 M NaCl, 10 mM MgSO4, 5 mg/ml sperm DNA, 10 mM urea, labeled DNA (10 nM and 1 uM both stated), 0-1.5 uM PtrR, 0-0.6 mM GABA, 1 h at 30 C, recombinant protein.

Construct, isoform or probe ends are uncertain for at least one entry. For part of these data: No signal at the amounts used counts as a negative. For part of these data: The comparison behind a weaker result is the experiment's own reference, which may not be listed here. For part of these data: Protein sequences can lack the tags named with them.

Turning to “GGGTTCTCGATTCGTGAAGGG (double strand) [sad (yneI) operator fragment]”, the binding result in the data set on PhrR (Halomonas) is listed as “no binding”; in data set [1] (GABA (0-0.6 mM) leads to dissociation) it was “binds more weakly”; in data set [1] (no GABA, specific binding detected at 0.6 uM PtrR), “binds”.

(Values after paper PMC9068703.)
